PubChem BioAssay AID1259308, NCATS, 2017

Test: 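Genes whose loss raises luciferase production in HEK293 cells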 (primary screen)
Cells: human HEK293 embryonic kidney cells stably expressing firefly luciferase (HEK-CMV-Luc2-Hygro)
Knock-down reagent: single siRNA against human genes, 0.8 pmol siRNA per well
Time to read-out: 72 h
Measured: 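Luciferase light (ONE-Glo) measured on one replicate plate set and viability (CellTiter-Glo) on the other, scaled to a negative control siRNA, with robust z-scores and luciferase per cell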
Reading the numbers: total luciferase, z-score and total luciferase, % of control: higher = more reporter protein produced; luciferase per cell, z-score: higher = more reporter output per viable cell; viable cells, % of control: higher = more viable cells
Active means: 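Active when the median/MAD z-score for overall luciferase is greater than 3; a gene was taken forward for validation with new siRNAs if at least two of its three siRNAs passed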
Calls: active = raised luciferase; inactive = no rise
The deposit covers about 59,000 reagents; below is a random part of them. About 1,510 of them (2.6%) count as active. 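Calls use total luciferase alone and ignore viability, so some active siRNAs may act by altering cell number.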 The numbers tell different reagents against one gene apart.

Target gene,reagent no.,"total luciferase, z-score","total luciferase, % of control","luciferase per cell, z-score","viable cells, % of control",outcome
VARS1 (valyl-tRNA synthetase 1),1,-0.0416,81.1,-0.547,105,inactive
VARS1 (valyl-tRNA synthetase 1),2,4.65,174,2.92,90.4,active
VARS1 (valyl-tRNA synthetase 1),3,2.95,140,1.85,96.5,inactive
"ZNF818P (zinc finger protein 818, pseudogene)",1,-0.123,79.4,-0.238,94.5,inactive
"ZNF818P (zinc finger protein 818, pseudogene)",2,-0.788,66.2,-0.73,89.7,inactive
"ZNF818P (zinc finger protein 818, pseudogene)",3,-1.12,59.6,-1.72,105,inactive
RFPL1 (ret finger protein like 1),1,-0.527,71.4,-1.01,104,inactive
RFPL1 (ret finger protein like 1),2,3.41,150,2.3,91.2,active
RFPL1 (ret finger protein like 1),3,-1.52,51.8,-1.63,88.7,inactive
DYRK1A,1,-0.704,67.9,-0.66,90.2,inactive
DYRK1A,2,-0.813,65.7,-0.776,90.1,inactive
DYRK1A,3,-1.09,60.1,-0.511,76.9,inactive
TCF7 (transcription factor 7),1,3.94,160,4.33,57.2,active
TCF7 (transcription factor 7),2,-2.45,33.1,-3,81.4,inactive
TCF7 (transcription factor 7),3,-0.718,67.6,-1.04,99.3,inactive

Individual results from the list.
For “total luciferase, z-score”, VARS1 (valyl-tRNA synthetase 1) #1 has -0.0416
ZNF818P (zinc finger protein 818, pseudogene) #2, outcome → inactive
Value for RFPL1 (ret finger protein like 1) #3 in “total luciferase, % of control”: 51.8
Result of DYRK1A #2 under “luciferase per cell, z-score”: -0.776

The results go on:
Target gene,reagent no.,"total luciferase, z-score","total luciferase, % of control","luciferase per cell, z-score","viable cells, % of control",outcome
MSL3B (MSL complex subunit 3B),1,-2.36,35,-1.29,55,inactive
MSL3B (MSL complex subunit 3B),2,-0.0971,80,-0.0823,91.3,inactive
MSL3B (MSL complex subunit 3B),3,1.66,115,1.07,96.8,inactive
ZFYVE28 (zinc finger FYVE-type containing 28),1,0.306,88,0.0924,95.9,inactive
ZFYVE28 (zinc finger FYVE-type containing 28),2,-0.0282,81.3,0.658,76.4,inactive
ZFYVE28 (zinc finger FYVE-type containing 28),3,-0.278,76.4,0.0592,84,inactive
CEP78 (centrosomal protein 78),1,-0.277,76.4,-0.151,88.8,inactive
CEP78 (centrosomal protein 78),2,0.264,87.1,-0.709,117,inactive
CEP78 (centrosomal protein 78),3,-0.657,68.8,-0.936,98.4,inactive
